In paper PMC12955860:
Results are given in words; binding and its absence hold for the method and conditions named. Some entries that bind do so weakly or less than the wild type.

B1: interferon regulatory transcription factor 3 (protein, UniProt Q14653 1-427)
chain: MGTPKPRILPWLVSQLDLGQLEGVAWVNKSRTRFRIPWKHGLRQDAQQEDFGIFQAWAEATGAYVPGRDKPDLPTWKRNFRSALNRKEGLRLAEDRSKDPHDPHKIYEFVNSGVGDFSQPDTSPDTNGGGSTSDTQEDILDELLGNMVLAPLPDPGPPSLAVAPEPCPQPLRSPSLDNPTPFPNLGPSENPLKRLLVPGEEWEFEVTAFYRGRQVFQQTISCPEGLRLVGSEVGDRTLPGWPVTLPDPGMSLTDRGVMSYVRHVLSCLGGGLALWRAGQWLWAQRLGHCHTYWAVSEELLPNSGHGPDGEVPKDKEGGVFDLGPFIVDLITFTEGSGRSPRYALWFCVGESWPQDQPWTKRLVMVKVVPTCLRALVEMARVGGASSLENTVDLHISNSHPLSLTSDQYKAYLQDLVEGMDFQGPGES
B2: interferon regulatory transcription factor 8 (protein, UniProt Q02556 1-426)
chain: MCDRNGGRRLRQWLIEQIDSSMYPGLIWENEEKSMFRIPWKHAGKQDYNQEVDASIFKAWAVFKGKFKEGDKAEPATWKTRLRCALNKSPDFEEVTDRSQLDISEPYKVYRIVPEEEQKCKLGVATAGCVNEVTEMECGRSEIDELIKEPSVDDYMGMIKRSPSPPEACRSQLLPDWWAQQPSTGVPLVTGYTTYDAHHSAFSQMVISFYYGGKLVGQATTTCPEGCRLSLSQPGLPGTKLYGPEGLELVRFPPADAIPSERQRQVTRKLFGHLERGVLLHSSRQGVFVKRLCQGRVFCSGNAVVCKGRPNKLERDEVVQVFDTSQFFRELQQFYNSQGRLPDGRVVLCFGEEFPDMAPLRSKLILVQIEQLYVRQLAEEAGKSCGAGSVMQAPEEPPPDQVFRMFPDICASHQRSFFRENQQITV

Molecular target: Nuclear factor I-B (human (endogenous in LX-2)) (UniProt O00712)
Assay: Re-ChIP (sequential chromatin immunoprecipitation); LX-2 cells stimulated with TGF-β; chromatin cross-linked with 1% formaldehyde and sonicated to about 500 bp; immunoprecipitated with the indicated antibodies; CCL5 promoter read by real-time PCR

Row | Binder | binding
1 | B1 | binds
2 | B2 | no binding
